Experimental findings from paper PMC12313019, “Fibrotic lung ECM upregulates SDC4/integrin-αvβ1 interaction and the interfering peptide SDC4_87-131 and its derivative peptides alleviate pulmonary fibrosis” (Regenerative Biomaterials, 2025) are described below.

Protein sequences, listed by entry. Tags and fused reporters are not part of them. Residues count along the entry.
UniProt P09055, residues 21-798: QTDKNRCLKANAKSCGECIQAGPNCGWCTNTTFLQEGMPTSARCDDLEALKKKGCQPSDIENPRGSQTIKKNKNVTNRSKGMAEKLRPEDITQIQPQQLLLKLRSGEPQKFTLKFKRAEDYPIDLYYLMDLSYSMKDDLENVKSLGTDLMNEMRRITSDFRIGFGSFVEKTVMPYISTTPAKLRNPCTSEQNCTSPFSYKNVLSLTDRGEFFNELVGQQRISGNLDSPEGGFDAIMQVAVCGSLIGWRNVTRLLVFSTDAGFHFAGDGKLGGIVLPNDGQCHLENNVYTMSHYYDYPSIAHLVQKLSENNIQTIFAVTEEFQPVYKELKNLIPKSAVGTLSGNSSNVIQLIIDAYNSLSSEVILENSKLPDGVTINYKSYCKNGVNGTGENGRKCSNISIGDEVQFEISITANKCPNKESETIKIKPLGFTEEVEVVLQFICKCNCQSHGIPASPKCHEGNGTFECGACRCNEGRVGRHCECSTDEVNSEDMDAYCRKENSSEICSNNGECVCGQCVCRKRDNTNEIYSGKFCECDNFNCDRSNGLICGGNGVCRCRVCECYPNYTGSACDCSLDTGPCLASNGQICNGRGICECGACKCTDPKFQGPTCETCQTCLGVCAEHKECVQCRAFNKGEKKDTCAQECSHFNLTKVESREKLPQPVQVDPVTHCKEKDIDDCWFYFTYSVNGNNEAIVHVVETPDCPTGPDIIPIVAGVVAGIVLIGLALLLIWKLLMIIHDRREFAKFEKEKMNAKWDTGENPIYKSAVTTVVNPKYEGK

This assay has as its target T1, syndecan-4 (SDC4) (mouse (endogenous in NIH3T3 and C57BL/6J lung)) (UniProt O35988).
T1 sequence: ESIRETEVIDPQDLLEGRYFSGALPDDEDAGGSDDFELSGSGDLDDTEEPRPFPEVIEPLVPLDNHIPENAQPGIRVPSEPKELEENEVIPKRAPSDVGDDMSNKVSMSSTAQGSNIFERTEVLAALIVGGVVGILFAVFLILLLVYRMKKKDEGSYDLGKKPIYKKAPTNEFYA
Nature of the assay: proximity ligation; Duolink PLA on NIH3T3 cells cultured on dECM-Nor or dECM-PF; antibodies against the extracellular domain of SDC4 (5G9), integrin-αv and integrin-β1; with Anti-SDC4_((93-121)) 500 ng/mL or SDC4_(87-131) 100 nM.

No constants are given. Whether binding was seen depends on the method and setting. Binding seen in cells or lysates may run through a third protein. Some results given as binding are weak or reduced against the parent protein; the word gives no strength.

Take “integrin-β1 (from UniProt P09055 21-798) (receptor)”: the binding result is “binds”.
